Assay results: PubChem BioAssay AID1347423 (Functional Genomics Laboratory (NCATS/FGL), 2020)
The campaign covered roughly 52,000 sequences. About 210 (0.4%) were called active.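 Rule for the calls: active = gene whose silencing raises cell survival under the drug, median off-target-corrected z-score across its silencing RNAs 2 or more; inactive = the rest.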 The list shows a part of the results.

assay: Resistance to Poly (ADP-Ribose) Polymerase inhibitor: Gene Identification via Genome-wide siRNA Screen; details: mouse BRCA2 R2336H ES cells, olaparib, CellTiter-Glo viability; active compounds read high
How it was run: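 Genome-wide siRNA screen (3 siRNAs/gene, 20 nM) in mouse ES cells carrying hypomorphic BRCA2 R2336H; olaparib 500 nM added 48 h post-transfection, CellTiter-Glo viability 72 h later. Normalized to plate-median negative control; MAD z-scores, gene median, seed-adjusted.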

| Sequence | z-score |
| --- | --- |
| CCCUUAUCCCAAUAAUAAGTT against Spag5 | inactive: -0.6 |
| GGUGGUACGCAAUCAAAAGTT against Wbscr17 | inactive: 0.874 |
| CCAAACCGAUAUAUAAAGUTT against Ddx51 | inactive: 0.172 |
| GGCCACAAGUUUUCAGACGTT against Actl7b | inactive: 0.834 |
| GGCACACAAACAAUUGGUATT against BC011248 | inactive: -0.386 |
| GGCCCAUAUCCACAUGAUGTT against Uxt | inactive: -1.03 |
| CCAUGACCUCACUGAAGUCTT against Slc26a6 | inactive: -0.85 |
| CGCAUCUGUUUCUUUUCCCTT against 1700029P11Rik | inactive: -0.409 |
| GAUAUCACAGAUCUGUUGUTT against Krtap13 | inactive: -0.0396 |
| GGAUAUUCUGUUUUAUGUCTT against D130054N24Rik | inactive: -0.669 |
| GGUUUUAUGAUAAGGCUCATT against Olfr895 | inactive: 0.152 |
| GGUAUUUCAUGAACAUCACTT against Grin2d | inactive: 1.84 |
| GGAAAUGGAAUCAAGACAGTT against Eif5 | inactive: -0.909 |
| GCUACUUGGAGUGGAUCUGTT against Klk15 | inactive: -2.77 |
| GGUGCAUUCAUUAUCUUAATT against Ikbkb | inactive: 0.659 |
| GCGAACCAUUCCACUCUUUTT against Hpgd | inactive: 0.597 |
| GGAACUAGUCUGGUGAACUTT against Apoa2 | inactive: 1.32 |
| CCUUAAUACAACUUGUCCCTT against BC026996 | inactive: 1.23 |
| GGAUGUCAGGACAAAACCATT against Olfr1335 | inactive: 0.786 |
| CCUCAUGCAGUUAAAUAUGTT against Kera | inactive: -0.257 |
| GGCAGAAACUAGCAGAAGATT against Gdf2 | inactive: -1.04 |
| UGGGCCUUGUAGGCUUCAUTT against 4631403P03Rik | inactive: 0.712 |
| GGCCAUUGUUACUGGAAAATT against Elmo2 | inactive: -0.978 |
| GGCAGGCAACCAAUCAAAUTT against Npepps | inactive: -0.666 |
| GCUCUGCUAACUUACAUCUTT against BC051083 | inactive: 0.361 |
| GGUAGAGGAGAUCUUCAAGTT against Entpd5 | inactive: 0.113 |
| CGUUGUCUAAAUUGUGAAATT against Kpna3 | inactive: 1.91 |

| Sequence | z-score |
| --- | --- |
| GGGUCAGAUUUUCAAUGUCTT against Bmpr1b | inactive: 0.643 |
| GGAUAACCUAUCGAAUCUCTT against Dsg4 | inactive: 2.02 |
| CGGAUUACAAACCAUAAAATT against Rkhd3 | inactive: 0.102 |
| GGAACUGGAGUUUCUUAGCTT against Anp32e | inactive: -0.378 |
| GGGAAGACGACUGUAAUUGTT against Mrps18a | inactive: -0.385 |
| GCAAGAUUCAUUGUCACUGTT against Vil2 | inactive: 1.04 |
| GCACACACAUCAGUAAAUUTT against Olfr1444 | inactive: -1.98 |
| CCAAACCAGCACAUUGAAGTT against Il12a | inactive: -0.738 |
| CCUCUUCCUGCUAAUCAUUTT against Olfr599 | inactive: -1.04 |
| GGCCUACGCAUCUUCUACCTT against Mest | inactive: 0.508 |
| GGAAAGAAGUGUCAGUUUUTT against Rfrp | inactive: 0.526 |
| GGUCUUGGUGAGCAUGAGATT against Lnpep | inactive: 0.579 |
| GCGGUCACGUGUGAUGGAUTT against E430039K05Rik | inactive: 1.13 |
| GGAGGAACUGGAUUCUUACTT against Eps8l3 | inactive: -1.18 |
| GGUCCUAAAAUUUCCUCUUTT against Prdx3 | inactive: 0.153 |
| GGUCAAGAUGUCAUUAUGATT against Apeg1 | inactive: 0.873 |
| GGAAAAUCACCUAUAAGAATT against Rabl2a | inactive: 0.996 |
| GGCCAUUUACAAGAUGGUUTT against Hpca | inactive: -0.329 |
| GGCUGAACAGCAAAAAAAATT against Foxn4 | inactive: 0.546 |
| GGAACAGCUGUGAUUAACGTT against Prdx4 | inactive: -0.153 |
| UGAAGUCUAAUCAGAGCACTT against Olfr50 | inactive: -2.01 |
| CGUGCAGAUCAACGAUAUUTT against Rps5 | inactive: -3.15 |
| GGACAUUCUGCUACACAAGTT against Bsx | inactive: -0.137 |
| CGGCUCUUCUUAAAAUUGATT against Rpl35a | inactive: -3.28 |
| CGAGGACUACUAGAAGAAATT against Trpc1 | inactive: 0.53 |
| GGUAUCACCAUAGAAUUGUTT against Zfp313 | inactive: 0.299 |
| GGUUAUUUCCCUGUUUUCATT against Olfr532 | inactive: 0.0798 |

| Sequence | z-score |
| --- | --- |
| GGUUUGGUUACAAAAAUACTT against Mmp16 | inactive: -0.339 |
| GGACUAAUGUCUCCAACUATT against Rdh7 | inactive: -2.16 |
| GUUACAGCUGCCUUUGUUUTT against Olfr893 | inactive: -3.25 |
| GGUGUGUGACUCAGAUACUTT against Has2 | inactive: -0.28 |
| GGGCUUAAUUAUGUCUUUUTT against C130022P09Rik | inactive: -1.43 |
| GGAAAGAUUUAUUUUGACGTT against Vnn3 | inactive: -0.229 |
| GGGCAAGAGGAUUAUGACATT against Cdc42 | inactive: -1.87 |
| GCUACAUGAUGUUCAUACUTT against Srpx | inactive: 0.806 |
| GAGAUGAUGGAUGCCCAGCTT against Ndufb7 | inactive: -0.631 |
| GGAACGAUCGAAACAAGAATT against Rarg | active: 3.59 |
| GCACUUCGCCCACUGUUUATT against 1700029B21Rik | inactive: 1.4 |
| GUACUCUUUUUCAUCUUCCTT against Olfr1010 | inactive: -1.35 |
| GGGUCAAUUGCCAAAACUCTT against Arhgdia | inactive: 0.344 |
| GGCAAUCCAGACGAUAUCUTT against Abca1 | inactive: 4.5 |
| GGCCUGGAGGACUUUAUAATT against Cyp2a4 | inactive: -2.09 |
| GCAGGAGACGCAAUAGAAATT against Dte | inactive: -0.373 |
| GGUGUCACCAAGAAUGAUGTT against Ceacam10 | inactive: -0.636 |
| GCAUGCUUACGGUCUCCAATT against Ccl1 | inactive: -0.775 |
| GGCGAAUCUCAUUAGGGAGTT against Ndor1 | inactive: 0.378 |
| CCUGUGAAAAUUUUAGUGCTT against Pms1 | inactive: 0.131 |
| CCUGAGAUUGGGAAAUUCUTT against D230014K01Rik | inactive: 0.781 |
| CCCUGGUAUUGGUUUCACATT against 0610007A15Rik | inactive: 1.03 |
| GGAAUGGUAUUUCUAUUGUTT against Plek | inactive: 0.00705 |
| AAGGGUGCCUUAAAAAAACTT against Olfr136 | inactive: 0.526 |
| GGGAACAAGAUGCUCUGUGTT against Ng23-pending | inactive: 1.07 |
| GCUGCGAUAUUUAAUUCAGTT against 2410193C02Rik | inactive: 1.35 |
| GCAUAUGUGUGUUUAACCUTT against Rdh6 | inactive: -0.323 |

For convenience, part of the list above:

| Sequence | z-score |
| --- | --- |
| GGAAAUGGAAUCAAGACAGTT against Eif5 | inactive: -0.909 |
| GCUACUUGGAGUGGAUCUGTT against Klk15 | inactive: -2.77 |
| GGUGCAUUCAUUAUCUUAATT against Ikbkb | inactive: 0.659 |
| GCGAACCAUUCCACUCUUUTT against Hpgd | inactive: 0.597 |
| GGAACUAGUCUGGUGAACUTT against Apoa2 | inactive: 1.32 |
| CCUUAAUACAACUUGUCCCTT against BC026996 | inactive: 1.23 |
| GGAUGUCAGGACAAAACCATT against Olfr1335 | inactive: 0.786 |
| CCUCAUGCAGUUAAAUAUGTT against Kera | inactive: -0.257 |
| GGCAGAAACUAGCAGAAGATT against Gdf2 | inactive: -1.04 |
| UGGGCCUUGUAGGCUUCAUTT against 4631403P03Rik | inactive: 0.712 |
| GGCCAUUGUUACUGGAAAATT against Elmo2 | inactive: -0.978 |
| GGCAGGCAACCAAUCAAAUTT against Npepps | inactive: -0.666 |
| GCUCUGCUAACUUACAUCUTT against BC051083 | inactive: 0.361 |
| GGUAGAGGAGAUCUUCAAGTT against Entpd5 | inactive: 0.113 |
| CGUUGUCUAAAUUGUGAAATT against Kpna3 | inactive: 1.91 |
| GGGUCAGAUUUUCAAUGUCTT against Bmpr1b | inactive: 0.643 |
| GGAUAACCUAUCGAAUCUCTT against Dsg4 | inactive: 2.02 |
| CGGAUUACAAACCAUAAAATT against Rkhd3 | inactive: 0.102 |
| GGAACUGGAGUUUCUUAGCTT against Anp32e | inactive: -0.378 |
| GGGAAGACGACUGUAAUUGTT against Mrps18a | inactive: -0.385 |
| GCAAGAUUCAUUGUCACUGTT against Vil2 | inactive: 1.04 |
| GCACACACAUCAGUAAAUUTT against Olfr1444 | inactive: -1.98 |
| CCAAACCAGCACAUUGAAGTT against Il12a | inactive: -0.738 |
| CCUCUUCCUGCUAAUCAUUTT against Olfr599 | inactive: -1.04 |
| GGCCUACGCAUCUUCUACCTT against Mest | inactive: 0.508 |
| GGAAAGAAGUGUCAGUUUUTT against Rfrp | inactive: 0.526 |
| GGUCUUGGUGAGCAUGAGATT against Lnpep | inactive: 0.579 |
| GCGGUCACGUGUGAUGGAUTT against E430039K05Rik | inactive: 1.13 |

The results go on.

| Sequence | z-score |
| --- | --- |
| GCGGUACAACCAAAAAGACTT against AI507495 | inactive: -1.62 |
| GGCGGAUUCAGUCAGCUUUTT against Trim47 | inactive: -0.125 |
| GGAUGUAAAAGAGACUGUGTT against Olfr1176 | inactive: -0.389 |
| GGACAAUGUGCAUUCUCACTT against D1Ertd251e | inactive: 0.654 |
| GGCGAAGAAGACAGAAAAGTT against 1700012L04Rik | inactive: 0.453 |
| GCAGUAGAGGAGCAAUAUUTT against 1810057P16Rik | inactive: 0.921 |
| GGAACAUUUGAAGUGCAAATT against Ilf2 | inactive: 0.157 |
| GGAUCAAUGCACCUUCCAATT against Gpr85 | inactive: -0.724 |
| GGGUGUUGACAGCUGUAAATT against C1sb | inactive: -0.716 |
| GUAUGCUGUGAGCCUUGUCTT against Sprr2b | inactive: -2.19 |
| GCUCUCCUUGCACUUUACATT against Syt4 | inactive: 1.86 |
| GGCUACUUUCUGAAUUUUCTT against Ror2 | inactive: 1.08 |
| GGGACCUUUUCAGGACCUUTT against Ucp2 | inactive: 0.798 |
| GGAGGAGGGAUCACAAGAATT against Mrpl23 | inactive: -2.31 |
| CCCUUUCGUUCUUUACUUUTT against Olfr506 | inactive: 1.07 |
| GGCAGAUUCAGAAUUGUCUTT against Il17 | inactive: -1.04 |
| GGAGGGAAUGAAAAGUCAATT against Stard7 | inactive: -0.342 |
| CCUGAAGUUUGACUGUUUATT against Adam30 | inactive: -0.964 |
| GGCAAUGGCACUGAAGUCATT against Olfr994 | inactive: 1.39 |
| GCGGCUUAAAGACCUGUUGTT against Sdhc | inactive: -1.13 |
| GCCACGACACGAUGACAUATT against A330045H12Rik | inactive: -0.0169 |
| GGUAAUCCGAGCCAACAUUTT against Gpt2 | inactive: -0.846 |
| GGCAGUGUACAUCUGGAUATT against Olfr611 | inactive: 0.716 |
| GGUGGUAAAUAAUUAAGGATT against 1200003C23Rik | inactive: 0.171 |
